PubChem BioAssay AID686943 | Drosophila RNAi Screening Center, 2013
The deposit covers about 23,000 reagents; below is a random part of those that have a named target and a result. 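Extra replicates exist only for a retested subset of genes; insulin dose and duration not given; both raised and lowered dpERK matter.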 A plus sign joins genes that one reagent is predicted to hit. Not given: the amount of reagent, the time to read-out.

Screen: 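Knockdowns that increase or decrease active ERK after insulin receptor stimulation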 (primary screen)
Cell system: Drosophila S2R+ haemocyte-like cells expressing YFP-tagged ERK (Rolled)
Reagents: long dsRNA against Drosophila genes
Conditions: insulin stimulation versus unstimulated cells; dose and duration not given
Detection: 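Per-plate z-scores of phospho-ERK immunostaining normalised to YFP-tagged ERK, measured with and without insulin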
Reading the numbers: replicate 1, z-score of dpERK with insulin and replicate 2, z-score of dpERK with insulin: higher = more active ERK per ERK-YFP after insulin; replicate 1, z-score of dpERK under basal conditions: higher = more basal active ERK per ERK-YFP; replicate 1, z-score of ERK-YFP with insulin: higher = more YFP-tagged ERK signal

| predicted target | dsRNA | replicate 1, z-score of dpERK with insulin | replicate 2, z-score of dpERK with insulin | replicate 1, z-score of dpERK under basal conditions | replicate 1, z-score of ERK-YFP with insulin |
| --- | --- | --- | --- | --- | --- |
| Kdsr (3-ketodihydrosphingosine reductase) | DRSC14245 | -0.26 | 0.47 | -0.31 | 0.96 |
| PGRP-LB (Peptidoglycan recognition protein LB) | DRSC14926 | 0.28 | -0.25 | -0.42 | -1.94 |
| GatC + PolG2 | DRSC03312 | 0.48 | -0.31 | 0.69 | 0.07 |
| aralar1 | DRSC13987 | -0.14 | -0.13 | -0.59 | 0.2 |
| aralar1 | DRSC16901 | 5.02 | 0 | -0.71 | 0.44 |
| Stim (Stromal interaction molecule) | DRSC20158 | -0.08 | 0.05 | -0.79 | -0.45 |
| SPH93 (Serine protease homolog 93) | DRSC02978 | 0.26 | -0.01 | 0.8 | -0.02 |
| CG5664 | DRSC11782 | -0.07 | -0.48 | 0.07 | 0.34 |
| CG10669 | DRSC14261 | 0.28 | 0.04 | -0.52 | -1.92 |
| CG31231 | DRSC13308 | 0.4 | 0.98 | -0.93 | -4.39 |
| CG13309 | DRSC09980 | -0.49 | 0.11 | 1.09 | -0.8 |
| eIF2D (eukaryotic translation initiation factor 2D) | DRSC13916 | 0.19 | 0.36 | -0.06 | 0.06 |
| Cpr64Ab (Cuticular protein 64Ab) | DRSC08461 | -0.41 | -0.29 | -0.66 | 1.03 |
| CG3349 | DRSC10359 | -0.84 | -0.01 | -0.16 | 0.51 |
| Jhbp1 (Juvenile hormone binding protein 1) | DRSC12167 | 0.49 | -0.63 | 0.29 | -0.7 |
| EMC5 (ER membrane protein complex subunit 5) | DRSC02469 | 0.41 | 0.73 | 0.18 | 0.04 |
| CG10376 | DRSC02049 | 0.54 | 0.05 | -1.33 | -0.42 |
| CG15914 | DRSC19739 | 0.22 | 0.2 | 0.2 | 0.33 |
| ERR (estrogen-related receptor) | DRSC10840 | -0.02 | 0.08 | 0.71 | -0.5 |
| bsd (back seat driver) | DRSC05953 | -1.15 | -2.61 | -0.85 | -2.83 |

The list goes on; the last 4 above are carried over.
| predicted target | dsRNA | replicate 1, z-score of dpERK with insulin | replicate 2, z-score of dpERK with insulin | replicate 1, z-score of dpERK under basal conditions | replicate 1, z-score of ERK-YFP with insulin |
| --- | --- | --- | --- | --- | --- |
| CG10376 | DRSC02049 | 0.54 | 0.05 | -1.33 | -0.42 |
| CG15914 | DRSC19739 | 0.22 | 0.2 | 0.2 | 0.33 |
| ERR (estrogen-related receptor) | DRSC10840 | -0.02 | 0.08 | 0.71 | -0.5 |
| bsd (back seat driver) | DRSC05953 | -1.15 | -2.61 | -0.85 | -2.83 |
| CG13506 | DRSC04150 | -0.01 | 2.17 | -1.3 | 0.12 |
| Flad2 (Flavin adenine dinucleotide synthetase 2) | DRSC02531 | 1.19 | 0.54 | 1.42 | 0.08 |
| Mpi (Mannose phosphate isomerase) | DRSC16417 | -0.85 | -0.59 | 0.03 | 0.07 |
| Ugt50B3 (UDP-glycosyltransferase family 50 member B3) | DRSC04778 | 0.26 | 0.3 | 1.38 | 0.55 |
| Ugt50B3 (UDP-glycosyltransferase family 50 member B3) | DRSC04779 | 1.33 | 0.84 | 0.06 | 0.16 |
| Ugt50B3 (UDP-glycosyltransferase family 50 member B3) | DRSC21419 | -0.59 | -2.24 | 0.72 | 0.11 |
| CG4213 | DRSC00641 | 0.6 | -0.19 | 0.87 | 0.1 |
| CG4558 | DRSC18369 | -0.37 | -0.75 | 0.25 | 0.35 |
| Snr1 (Snf5-related 1) | DRSC12369 | 1.96 | -0.24 | -0.58 | -0.64 |
| Idh3g | DRSC15699 | -0.08 | -0.09 | 2.37 | -0.18 |
| Ugt302C1 (UDP-glycosyltransferase family 302 member C1) | DRSC15353 | -0.38 | 0.57 | -0.71 | -0.11 |
| Sys1 (Sys1 golgi trafficking protein) | DRSC14372 | 0.08 | -0.23 | -1 | 0.21 |
| MICAL-like | DRSC09829 | 0.12 | 0.6 | -0.51 | 0.07 |
| Rga + asRNA:ASTR | DRSC12364 | 0.08 | -1.03 | 0.06 | -1.53 |
| CG11741 | DRSC14367 | -0.16 | -0.08 | 0.63 | 0.19 |
| CG5731 | DRSC02883 | 0.02 | -0.52 | -1.18 | 0.96 |
| snk (snake) | DRSC17060 | -0.32 | 1.45 | 0.74 | 0.01 |
| Elba3 (Early boundary activity 3) | DRSC00469 | 0.95 | 0.57 | -0.16 | -0.27 |
| CG32983 | DRSC22367 | 0.75 | 0.37 | 0.2 | -0.66 |
| CG12491 + CG34105 | DRSC04008 | 0.97 | 0.68 | -0.37 | -0.71 |
| CG12491 + CG34105 | DRSC04124 | 1.11 | 0.31 | 0.53 | 0 |
| beag | DRSC15296 | -1.13 | -0.12 | -0.67 | -0.36 |
| CG14631 | DRSC17792 | 0.41 | -0.08 | 0.05 | 0.22 |
| CG14631 | DRSC17941 | 0.12 | -0.14 | -0.19 | -0.43 |
| RabX4 | DRSC22189 | 0.27 | -0.19 | 0.27 | 0.56 |
| ProtA (Protamine A) | DRSC03372 | -0.21 | -0.1 | -0.79 | 0.05 |
| cav (caravaggio) | DRSC15995 | 0.32 | -0.29 | -0.43 | 0.82 |
| aurB (aurora B) | DRSC03548 | 0.84 | 0.39 | -0.5 | -1.28 |
| Syt14 (Synaptotagmin 14) | DRSC12331 | -0.64 | -0.22 | -0.13 | 0.3 |
| HP5 (Heterochromatin protein 5) | DRSC19773 | 1 | 0.49 | 0.13 | -0.17 |
| CG7632 | DRSC11842 | 0.5 | 0.68 | -1.25 | -0.5 |
| CG42534 | DRSC14722 | -3.25 | -0.33 | 1.85 | 2.69 |
| CG42534 | DRSC14759 | -0.62 | -2.61 | -1.89 | 0.89 |
| CG42534 | DRSC16072 | 0.71 | 0.32 | 0.79 | 0.35 |
| CR18228 (pseudo) | DRSC15317 | -0.88 | -0.21 | 1.8 | 0.28 |
| Pstk + CG14210 + Tim9b | DRSC19566 | -1.27 | -2.43 | -2.84 | -0.85 |
| mod(mdg4) + pre-mod(mdg4)-U | DRSC13476 | -2.49 | 0.08 | -0.21 | -0.42 |
